Reference: PMC9177545, “3-oxo-C12:2-HSL, quorum sensing molecule from human intestinal microbiota, inhibits pro-inflammatory pathways in immune cells via bitter taste receptors” (Scientific Reports, 2022)

Tested on: RAW264.7 cells
Test: Transcriptomic analysis (RNA-seq) of activated RAW264.7 cells
Format: cell-based, murine
Details: 50 µM, 2 h, LPS and IFNγ stimulated
Description: In RAW264.7 cells, inflammation was triggered with LPS (10 ng/mL, Sigma) and IFNγ (10 U/mL, R&Dsystems) for 2 h or 6 h, depending on the experiments. PBMC were exposed to LPS (10 ng/mL) and AHL for 24 h. For TAS2R38 inhibition experiments, cells were exposed to TAS2R38 allosteric inhibitor probenecid (1 mM, Sigma) for one hour before adding AHLs and the inflammatory cocktail, without changing the media.
Cells were treated for 2 h and then washed once with PBS before RNA extraction using RNeasy minikit (Qiagen), according to the manufacturer’s instructions. Briefly, cells were lysed and 1 volume of ethanol was added. The sample was transferred into a spin column and centrifuged at 8000g for 15 s. The column was washed several times and then eluted with water. RNA quality was assessed using NanoChip (Agilent) on a chip reader (Bioanalyzer 2100, Agilent).
After extraction, total RNA were qualified with the AGILENT tapeStation 2200. […] Final samples pooled into a library were sequenced on ILLUMINA Novaseq 6000, corresponding to 2 × 28 Millions of 100 bases reads per sample after demultiplexing.
FastQC v 0.11.9[62] was used for the quality control of raw paired-end fastq data set. Illumina’s adapters were removed from reads using cutadapt v2.10[63]. […] Salmon v 1.4.0[65] was used to quantify paired-end reads against a mapping-based index built from the Ensembl GRCm38 transcript set for all samples. […]

3-oxo-C12:2-HSL
number of genes down-regulated compared with control cells treated with DMSO: 736 genes
number of genes up-regulated compared with control cells treated with DMSO: 1140 genes
